In US12605371B2, “Combination therapy for cancer” (The Board of Trustees of the Leland Stanford Junior …, priority 2020, dated 2026):
At least one compound was matched to its structure with a doubt left.

Tested on: B16 tumors
Assay: B16 subcutaneous (flank) tumor model, mice fed dabigatran etexilate chow
Type: in vivo, mouse
Conditions: WT mice
Experimental: B16 subcutaneous tumor inoculation: B16 cells were grown until confluent and 2×10^6 cells were inoculated subcutaneously into WT, OPN-KI and OPN-KO mice. Mice were monitored daily for tumor growth. Tumor size was measured and volume calculated using the equation (width×width×length)/2. Animals were euthanized using CO2 and blood collected by cardiac puncture and tumors were isolated carefully. Blood was centrifuged at 2500 rpm for 20 min to prepare plasma and stored at −80° C. Tumors were weighed and measured. Part of the tumor was stored in formaldehyde for immunohistochemistry, part of it was frozen and stored at −80° C. for preparation of tumor lysates for OPN ELISAs. […] Animals were monitored daily and sacrificed after 2 weeks.

[H]/N=C(/N)c1ccc(NCc2nc3cc(C(=O)N(CCC(=O)O)c4ccccn4)ccc3n2C)cc1 [dabigatran]
B16 tumor growth (in words): replicated the tumor suppression phenotype
